Test results published in patent US20180055768A1.
No constants are given. Whether binding was seen depends on the method and setting. In cells and extracts the contact can be indirect. A yes stands for co-enrichment or nearness to the bait. Other partners may have been found.

Amino acid sequences for entries named in this document (tags omitted).
UniProt O00308: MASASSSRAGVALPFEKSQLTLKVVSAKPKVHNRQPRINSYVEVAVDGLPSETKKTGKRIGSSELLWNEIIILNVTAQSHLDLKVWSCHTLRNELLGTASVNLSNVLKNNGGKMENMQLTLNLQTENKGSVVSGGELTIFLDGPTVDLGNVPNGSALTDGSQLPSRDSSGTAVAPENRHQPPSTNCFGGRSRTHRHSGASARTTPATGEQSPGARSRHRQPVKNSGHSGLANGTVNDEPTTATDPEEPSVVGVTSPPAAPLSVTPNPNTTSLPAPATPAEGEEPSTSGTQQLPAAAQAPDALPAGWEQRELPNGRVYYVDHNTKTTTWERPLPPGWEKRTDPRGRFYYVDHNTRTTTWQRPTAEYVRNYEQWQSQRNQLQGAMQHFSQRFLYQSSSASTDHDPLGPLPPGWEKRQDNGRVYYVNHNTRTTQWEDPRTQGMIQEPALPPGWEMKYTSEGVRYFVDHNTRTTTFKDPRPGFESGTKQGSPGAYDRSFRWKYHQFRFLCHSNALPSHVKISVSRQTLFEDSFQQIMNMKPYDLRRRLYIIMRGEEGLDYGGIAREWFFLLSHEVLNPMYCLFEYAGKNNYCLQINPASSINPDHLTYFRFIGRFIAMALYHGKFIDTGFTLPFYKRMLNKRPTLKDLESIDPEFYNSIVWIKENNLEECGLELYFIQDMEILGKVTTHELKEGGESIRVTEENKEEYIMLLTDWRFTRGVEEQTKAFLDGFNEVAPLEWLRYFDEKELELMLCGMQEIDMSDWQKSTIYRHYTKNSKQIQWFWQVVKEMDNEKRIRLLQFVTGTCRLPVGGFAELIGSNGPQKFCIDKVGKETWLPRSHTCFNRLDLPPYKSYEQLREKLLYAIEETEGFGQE

Biological target: WWP2 (endogenous, identified in ARRDC1 immunoprecipitates of 293T cell lysates) (UniProt O00308)
Assay: immunoprecipitation of endogenous ARRDC1 from 293T lysates with anti-ARRDC1 rabbit antibody, mass spectrometry

- binding: binds
B1: endogenous ARRDC1 (293T cells) (protein)
chain: MGRVQLFEISLSHGRVVYSPGEPLAGTVRVRLGAPLPFRAIRVTCIGSCGVSNKANDTAWVVEEGYFNSSLSLADKGSLPAGEHSFPFQFLLPATAPTSFEGPFGKIVHQVRAAIHTPRFSKDHKCSLVFYILSPLNLNSIPDIEQPNVASATKKFSYKLVKTGSVVLTASTDLRGYVVGQALQLHADVENQSGKDTSPVVASLLQKVSYKAKRWIHDVRTIAEVEGAGVKAWRRAQWHEQILVPALPQSALPGCSLIHIDYYLQVSLKAPEATVTLPVFIGNIAVNHAPVSPRPGLGLPPGAPPLVVPSAPPQEEAEAEAAAGGPHFLDPVFLSTKSHSQRQPLLATLSSVPGAPEPCPQDGSPASHPLHPPLCISTGATVPYFAEGSGGPVPTTSTLILPPEYSSWGYPYEAPPSYEQSCGGVEPSLTPES
